Laboratory results published in US20240343727A1, “PYRIDAZINONE OR PYRIDINONE COMPOUNDS, PREPARATION METHODS AND USES THEREOF” (InventisBio Co., Ltd., priority 2021, published 2024).
Like-named read-outs stand apart in the source and are kept apart here. The match of structure and compound is tentative.

Chains of the proteins cited; added tags and fusions are not shown.
UniProt Q7Z3E1, whole entry: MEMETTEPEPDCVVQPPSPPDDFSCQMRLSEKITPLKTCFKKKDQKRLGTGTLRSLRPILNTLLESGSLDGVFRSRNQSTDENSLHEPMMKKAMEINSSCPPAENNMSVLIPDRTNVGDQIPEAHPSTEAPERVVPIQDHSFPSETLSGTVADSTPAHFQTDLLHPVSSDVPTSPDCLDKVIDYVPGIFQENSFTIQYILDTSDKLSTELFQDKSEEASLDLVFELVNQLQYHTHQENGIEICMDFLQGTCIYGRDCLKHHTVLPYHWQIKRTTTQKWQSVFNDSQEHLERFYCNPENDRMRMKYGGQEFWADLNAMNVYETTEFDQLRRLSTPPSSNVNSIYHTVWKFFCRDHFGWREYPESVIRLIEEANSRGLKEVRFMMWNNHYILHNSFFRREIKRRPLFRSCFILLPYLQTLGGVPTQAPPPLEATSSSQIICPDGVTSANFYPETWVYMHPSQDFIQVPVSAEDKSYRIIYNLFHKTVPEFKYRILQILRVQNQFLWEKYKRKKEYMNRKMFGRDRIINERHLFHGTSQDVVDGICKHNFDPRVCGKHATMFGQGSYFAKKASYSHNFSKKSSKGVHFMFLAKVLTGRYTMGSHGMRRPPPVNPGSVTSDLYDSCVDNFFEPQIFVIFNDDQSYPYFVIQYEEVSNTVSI

Experiments:
[1] = target: PARP7 (Homo sapiens, UniProt Q7Z3E1); assay: PARP7 TR-FRET assay (binding, displacement of biotinylated Probe A); conditions: read-out: PARP7 TR-FRET IC50, 6 nM PARP7, 2 nM Probe A, 25° C., 30 min
Procedure: Biological Assay Example A: PARP7 TR-FRET Assay
A time-resolved fluorescence energy transfer (TR-FRET) assay was used to test binding activity of compounds to PARP7. Two microliter test compound was added in 384-well plate. Reactions were performed in a 6 uL volume by adding 4 uL mixture of PARP7 and Probe A (a biotinylated probe binding to the PARP7: N-(6-(2-(4-((2-(6-oxo-5-(trifluoromethyl)-1,6-dihydropyridazin-4-yl) isoindolin-5-yl) oxy) piperidin-1-yl) acetamido) hexyl)-5-((3aS,4S,6aR)-2-oxohexahydro-1H-thieno [3,4-d]imidazol-4-yl) pentanamide, made as reported in WO2019212937A1) in assay buffer (20 mM HEPES pH 8.0, 100 mM NaCl, 0.1% BSA, 2 mM DTT and 0.002% Tween20). The final concentration of PARP7 and Probe A were 6 nM and 2 nM, incubating with test compounds at 25° C. for 30 min. Four microliter ULight-anti 6xHis and LANCE Eu-W1024 labeled streptavidin (PerkinElmer) were added with the final concentration of ULight-anti 6xHis and LANCE Eu-W1024 at 4 nM and 0.25 nM. The reaction mixture was incubated at 25° C. for 30 min. The plate was read on a Tecan Spark plate reader (excitation wavelength at 320 nm, emission wavelength at 615 nm and 665 nm with a 90 us delay. The ratio of the 665/615 nm emission was calculated for each well to the amount of complex of PARP7 and Probe A in each well was calculated. The 0.25% DMSO vehicle was used as control and no PARP7 well was as blank well. Inhibition rate is calculated with the formula of % inhibition=100-100*(TRFcmpd-TRFblank)/(TRFcontrol−TRFblank). Inhibition IC50 is calculated with the equation of Y=Bottom+ (Top-Bottom)/(1+10^((LogIC50−X) *Hill Slope))

[2] = test system: NCI-H1373 cells; assay: Inhibition of cancer cell growth in NCI-H1373 cells (Cell-titer Glo, 6 days); conditions: read-out: H1373 Cell Proliferation IC50
Procedure: Biological Assay Example B: Inhibition of cancer cell growth in NCI-H1373 cells by PARP7 inhibitors
NCI-H1373 cells were cultured in RPMI 1640 medium supplemented with 10% fetal bovine serum, 100 U/mL penicillin and 100 ug/mL streptomycin in a 37° C., 5% CO2 incubator. Fifteen hundred cells were seeded into each well of 96-well plate in RPMI1640 medium containing 10% fetal bovine serum and incubated overnight. Serial diluted compounds for each well were added at a final DMSO concentration of 0.5% and a day zero plate was collected for analysis. Compounds were incubated with the cells for 6 days. Cell growth was assessed using Cell-titer Glo reagent (Promega #G^7572). The luminescence signal was collected on Tecan Spark plate reader. Cell growth is determined by correcting for the cell count on day zero. Inhibition rate is calculated with the formula of % inhibition=100*(DMSO control-compounds)/(DMSO control-Blank). Cell growth inhibition IC50 is calculated with the equation of Y-Bottom+ (Top-Bottom)/(1+10^((LogIC50−X) *Hill Slope)).

| IC50 [1] [nM] | IC50 [2] [nM] | IC50 ([1]; tested form: TFA (0.4 eq)) [nM] | SMILES |
| --- | --- | --- | --- |
|  |  | < 100 | CO[C@H]1C[C@@H](Oc2c(Oc3cccc(C(=O)N4CCN(c5ncc(C(F)(F)F)cn5)CC4)c3)n[nH]c(=O)c2C(F)(F)F)C1 (relative stereo) |
| < 100 |  |  | O=C(c1cccc(Oc2n[nH]c(=O)c(C(F)(F)F)c2OC2CC(F)(F)C2)c1)N1CCN(c2ncc(C(F)(F)F)cn2)CC1 |

Second part, the compound before the results:

| SMILES | IC50 [1] [nM] | IC50 [2] [nM] | IC50 ([1]; tested form: TFA (0.4 eq)) [nM] |
| --- | --- | --- | --- |
| N#Cc1ccc2c(c1)N(c1cc(C(F)(F)F)c(=O)[nH]n1)CC(CC(=O)N1CCN(c3cnc(C(F)(F)F)cn3)CC1)O2 (single isomer, unassigned) | < 100 | < 100 |  |
| Cc1c(Oc2cccc(C(=O)N3CCN(c4cnc(C(F)(F)F)cn4)CC3)c2)n[nH]c(=O)c1C(F)(F)F | < 100 | 100 to 1000 |  |
| N#Cc1cnc(N2CCN(C(=O)c3cccc(Oc4n[nH]c(=O)c(C(F)(F)F)c4N4CC5(C4)CC(F)(F)C5)c3)CC2)nc1 |  |  | < 100 |
